This note sets out measurements from ChEMBL document CHEMBL4350955, “Novel Chemical Series of 5-Lipoxygenase-Activating Protein Inhibitors for Treatment of Coronary Artery Disease” (J Med Chem, 2019).

Sequences of proteins named here, by UniProt entry; tags and fusion partners are left off. A change or cut given only in a name is not applied to a line headed by its entry.
UniProt Q12809: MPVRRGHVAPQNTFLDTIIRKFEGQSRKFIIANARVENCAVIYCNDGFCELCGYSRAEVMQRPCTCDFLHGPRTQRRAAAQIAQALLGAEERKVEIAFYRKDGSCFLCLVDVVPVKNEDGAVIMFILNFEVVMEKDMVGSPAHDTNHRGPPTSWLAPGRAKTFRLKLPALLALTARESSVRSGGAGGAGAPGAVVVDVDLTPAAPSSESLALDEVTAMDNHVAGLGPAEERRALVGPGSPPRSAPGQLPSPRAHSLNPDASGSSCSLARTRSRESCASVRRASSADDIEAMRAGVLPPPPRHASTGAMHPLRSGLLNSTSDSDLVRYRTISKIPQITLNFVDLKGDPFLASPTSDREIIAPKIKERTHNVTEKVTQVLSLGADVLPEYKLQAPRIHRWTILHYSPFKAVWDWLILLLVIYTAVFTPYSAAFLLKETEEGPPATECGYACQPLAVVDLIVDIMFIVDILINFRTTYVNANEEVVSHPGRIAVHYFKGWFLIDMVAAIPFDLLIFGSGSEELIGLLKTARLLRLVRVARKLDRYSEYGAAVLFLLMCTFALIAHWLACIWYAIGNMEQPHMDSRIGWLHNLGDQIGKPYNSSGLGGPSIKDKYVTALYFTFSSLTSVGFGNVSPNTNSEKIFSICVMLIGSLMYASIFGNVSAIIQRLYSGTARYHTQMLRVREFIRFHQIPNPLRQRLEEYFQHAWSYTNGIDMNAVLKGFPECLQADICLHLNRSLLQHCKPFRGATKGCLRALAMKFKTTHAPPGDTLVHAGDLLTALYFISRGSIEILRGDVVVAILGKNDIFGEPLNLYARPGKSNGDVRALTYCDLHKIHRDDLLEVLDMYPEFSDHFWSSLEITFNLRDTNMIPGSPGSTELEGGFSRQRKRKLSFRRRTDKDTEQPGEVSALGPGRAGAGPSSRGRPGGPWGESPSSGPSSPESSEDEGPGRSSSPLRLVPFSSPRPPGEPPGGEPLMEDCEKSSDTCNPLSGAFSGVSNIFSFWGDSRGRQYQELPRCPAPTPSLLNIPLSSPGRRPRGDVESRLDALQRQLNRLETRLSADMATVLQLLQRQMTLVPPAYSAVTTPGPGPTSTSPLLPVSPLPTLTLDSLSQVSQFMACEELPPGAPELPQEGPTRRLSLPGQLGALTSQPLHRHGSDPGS

As a reminder, the solubility is how much of the substance goes into solution per volume. The IC50 is the concentration that inhibits the measured activity by half. By logD is commonly meant lipophilicity at a set pH, counting ionised and neutral species.

A short description of one data set: physchem. To be noted: buffer, pH 7.4.
Data set [1] has as its target T1, Cytochrome P450 3A4 (Homo sapiens, UniProt P08684). In words: Inhibition of recombinant human CYP3A4 expressed in Escherichia coli assessed as maximum reduction in metabolite formation using coumarin based substrate by fluorescence assay.
Data set [2] relates to Cytochrome P450. The following applies: human, hepatocytes, 2 h.
Data set [3] concerns the target T1, Cytochrome P450 3A4. To be noted: recombinant enzyme, 3 h, 1 µM.
Data set [4] concerns the target Voltage-gated inwardly rectifying potassium channel KCNH2 (Homo sapiens, UniProt Q12809). As to the kind of experiment: Inhibition of human ERG by high-throughput electrophysiology assay.
A short description of data set [5]: Distribution coefficient between octanol and sodium phosphate buffer, logD of the compound in pH 7.4 buffer by LC-MS/MS-based shake flask method. The following applies: octanol/water.
The test system of data set [6] is Cytochrome P450. To be noted: human, hepatocytes, 2 h. The source holds these as a separate data set.
Data set [7] deals with T1, Cytochrome P450 3A4. To be noted: microsomes.

SMILES strings stand for the structures. ≈ marks a conversion by molar mass, not a printed value.

In “physchem”, `Cn1cc(NC(=O)[C@@H]2CCCC[C@H]2C(=O)c2ccc(-c3cc[nH]n3)cc2)c(C(F)(F)F)n1` returned a solubility at 24 h of 73 µM (≈ 32.5 µg/mL). In addition, the IC50 on Cytochrome P450 3A4 [1] was 20 µM; in data set [4], more than 31.6 µM. For the same molecule, the Drug metabolism in the data set on Cytochrome P450 [2] turned out to be 26%; at Cytochrome P450 3A4 [3], 57%; in the data set on Cytochrome P450 [6], 2%; on Cytochrome P450 3A4 [7] it was 94%. The logD in data set [5] was 3.4.

For `Cc1noc(C)c1NC(=O)[C@@H]1CCCC[C@H]1C(=O)c1ccc(-c2cc[nH]n2)cc1` (racemic), in the data set “physchem”, the solubility at 24 h came to 92 µM (≈ 36.1 µg/mL). Further, the IC50 at Cytochrome P450 3A4 [1] is 3.98 µM; in data set [4], more than 12.6 µM. In data set [5], this molecule yielded a logD of 3.1.
